US20030216321A1
Results are given in words; binding and its absence hold for the method and conditions named. Some binding calls cover weakened binding; strength is not graded here.

By UniProt entry, the sequences of proteins in these tests, tags left out. Where a name states a change or a piece, a line headed by the entry shows the natural chain unless it says otherwise. Residues count along the entry.
UniProt P04004, residues 20-478: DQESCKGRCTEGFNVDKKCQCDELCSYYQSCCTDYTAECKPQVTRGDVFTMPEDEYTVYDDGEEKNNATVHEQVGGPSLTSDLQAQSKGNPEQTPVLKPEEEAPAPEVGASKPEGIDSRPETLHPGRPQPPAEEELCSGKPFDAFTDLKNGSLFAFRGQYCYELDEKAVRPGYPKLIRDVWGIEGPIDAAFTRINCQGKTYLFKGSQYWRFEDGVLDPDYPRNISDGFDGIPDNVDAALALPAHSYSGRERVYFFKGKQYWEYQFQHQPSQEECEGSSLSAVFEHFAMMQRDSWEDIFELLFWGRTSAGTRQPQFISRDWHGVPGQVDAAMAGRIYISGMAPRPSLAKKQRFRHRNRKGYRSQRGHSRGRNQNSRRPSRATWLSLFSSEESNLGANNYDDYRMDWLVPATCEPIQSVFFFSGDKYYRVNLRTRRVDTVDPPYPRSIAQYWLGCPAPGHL
UniProt P05121: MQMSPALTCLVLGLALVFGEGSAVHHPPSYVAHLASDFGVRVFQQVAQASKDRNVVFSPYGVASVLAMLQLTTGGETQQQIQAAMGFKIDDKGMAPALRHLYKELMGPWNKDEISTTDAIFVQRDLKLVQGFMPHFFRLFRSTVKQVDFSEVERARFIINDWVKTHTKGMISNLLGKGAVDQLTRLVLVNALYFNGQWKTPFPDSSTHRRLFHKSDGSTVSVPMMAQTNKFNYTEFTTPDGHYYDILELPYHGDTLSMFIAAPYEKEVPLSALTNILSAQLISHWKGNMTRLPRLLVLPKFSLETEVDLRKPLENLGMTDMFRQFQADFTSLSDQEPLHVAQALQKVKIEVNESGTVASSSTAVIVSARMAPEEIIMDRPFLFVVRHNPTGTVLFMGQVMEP

Experiments:
[1] = target: urea denatured human vitronectin (conformationally altered) (human) (UniProt P04004); assay: solid phase assay on dVn-coated plates, anti-PAI-1 detection; not with high affinity
[2] = target: native human vitronectin (human) (UniProt P04004); assay: ELISA on immobilized nVn, anti-PAI-1 detection (FIG. 38)
[3] = target: urea denatured human vitronectin (conformationally altered) (human) (UniProt P04004); assay: ELISA on immobilized uVn, anti-PAI-1 detection; not with high affinity

Measured: binding

PAI-1 cleaved by elastase at the P4 position of the reactive center loop (from UniProt P05121 24-366)
binds: [1] | [2] | [3]
